PubChem BioAssay AID1224830, NIAID | 2016
The whole screen tested about 18,000 reagents; this is an unselected part. About 2,900 of all reagents (16%) count as active. 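Calls are made per well; low scores hint the gene aids the LPS response, high scores that it dampens it.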 Entries without a mark were called inactive. Repeated entries: four replicate wells of each siRNA pool.

- Purpose: 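Genes whose knock-down alters the TNF-alpha reporter response to LPS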 (primary screen)
- System: human THP-1 monocytic leukaemia cells, TNF dual-luciferase reporter clone, PMA-differentiated to macrophage-like cells
- Knock-down reagent: siRNA pool against human genes, 50 nM
- Duration: LPS for 4 h, given about 3 days after siRNA transfection
- Challenge: bacterial LPS (TLR4 ligand), 10 ng/ml
- Detection: 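TNF firefly reporter luminescence divided by renilla, normalised to the plate median, then turned into a robust z-score for each replicate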
- Reading the numbers: TNF reporter robust z-score: higher = stronger TNF reporter response to LPS
- Active means: 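a well is active when its z-score exceeds 2.8 or falls below -1.5; control wells carry no call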

CAPNS1
- TNF reporter robust z-score: -0.19

CAPNS1
- TNF reporter robust z-score: 1.01

CAPNS1
- TNF reporter robust z-score: 0.38

CAPNS1
- TNF reporter robust z-score: 0.24

TECPR2
- TNF reporter robust z-score: -0.65

TECPR2
- TNF reporter robust z-score: -0.48

TECPR2
- TNF reporter robust z-score: -0.2

TECPR2
- TNF reporter robust z-score: -0.34

SSR2
- TNF reporter robust z-score: -0.22

SSR2
- TNF reporter robust z-score: 0.21

SSR2
- TNF reporter robust z-score: -0.18

SSR2
- TNF reporter robust z-score: 0.18

KRT38
- TNF reporter robust z-score: -1.03

KRT38
- TNF reporter robust z-score: -0.13

KRT38
- TNF reporter robust z-score: -0.28

KRT38
- TNF reporter robust z-score: -0.48

Next part, starting with the last 2 of the part before.
KRT38
- TNF reporter robust z-score: -0.28

KRT38
- TNF reporter robust z-score: -0.48

SUV39H1
- TNF reporter robust z-score: -1.32

SUV39H1
- TNF reporter robust z-score: -1.08

SUV39H1
- TNF reporter robust z-score: -1.21

SUV39H1
- TNF reporter robust z-score: -0.41

KLHL27
- TNF reporter robust z-score: -0.49

KLHL27
- TNF reporter robust z-score: -0.36

KLHL27
- TNF reporter robust z-score: -1.23

KLHL27
- TNF reporter robust z-score: -1.5

GAPT
- TNF reporter robust z-score: -0.01

GAPT
- TNF reporter robust z-score: 0.19

GAPT
- TNF reporter robust z-score: -0.06

GAPT
- TNF reporter robust z-score: -0.4

KIF22
- TNF reporter robust z-score: -0.43

KIF22
- TNF reporter robust z-score: 0.17

KIF22
- TNF reporter robust z-score: -0.2

KIF22
- TNF reporter robust z-score: 0.39
